Measured values taken from the supplement of paper PMC10849652.
The other results are listed elsewhere or left out.

Sequences of proteins named here, by UniProt entry; tags and fusion partners are left off. A change or cut given only in a name is not applied to a line headed by its entry.
UniProt Q96PE7: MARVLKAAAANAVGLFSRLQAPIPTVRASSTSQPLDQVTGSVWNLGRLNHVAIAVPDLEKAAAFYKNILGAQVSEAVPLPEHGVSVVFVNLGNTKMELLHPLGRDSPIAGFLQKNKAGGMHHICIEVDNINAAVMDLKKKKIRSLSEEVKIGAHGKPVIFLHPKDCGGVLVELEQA
UniProt Q8IVS2: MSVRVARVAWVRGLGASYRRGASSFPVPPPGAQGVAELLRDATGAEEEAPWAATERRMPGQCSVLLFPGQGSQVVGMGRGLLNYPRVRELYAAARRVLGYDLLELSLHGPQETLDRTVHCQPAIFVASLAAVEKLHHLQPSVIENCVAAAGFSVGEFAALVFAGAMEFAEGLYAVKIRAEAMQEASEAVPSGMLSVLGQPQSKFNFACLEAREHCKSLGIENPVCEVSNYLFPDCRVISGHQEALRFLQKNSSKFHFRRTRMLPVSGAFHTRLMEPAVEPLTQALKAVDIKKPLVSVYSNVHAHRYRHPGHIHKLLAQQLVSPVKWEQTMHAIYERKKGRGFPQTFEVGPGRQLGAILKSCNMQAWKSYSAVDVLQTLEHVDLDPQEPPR
UniProt Q9Y316: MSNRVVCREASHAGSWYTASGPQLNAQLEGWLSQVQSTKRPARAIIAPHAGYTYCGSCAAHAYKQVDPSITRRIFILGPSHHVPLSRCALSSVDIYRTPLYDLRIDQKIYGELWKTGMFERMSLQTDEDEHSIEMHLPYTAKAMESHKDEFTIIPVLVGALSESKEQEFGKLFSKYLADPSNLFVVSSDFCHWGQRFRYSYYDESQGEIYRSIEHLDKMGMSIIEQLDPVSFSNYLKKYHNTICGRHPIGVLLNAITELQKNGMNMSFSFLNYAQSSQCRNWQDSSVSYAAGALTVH
UniProt Q14814: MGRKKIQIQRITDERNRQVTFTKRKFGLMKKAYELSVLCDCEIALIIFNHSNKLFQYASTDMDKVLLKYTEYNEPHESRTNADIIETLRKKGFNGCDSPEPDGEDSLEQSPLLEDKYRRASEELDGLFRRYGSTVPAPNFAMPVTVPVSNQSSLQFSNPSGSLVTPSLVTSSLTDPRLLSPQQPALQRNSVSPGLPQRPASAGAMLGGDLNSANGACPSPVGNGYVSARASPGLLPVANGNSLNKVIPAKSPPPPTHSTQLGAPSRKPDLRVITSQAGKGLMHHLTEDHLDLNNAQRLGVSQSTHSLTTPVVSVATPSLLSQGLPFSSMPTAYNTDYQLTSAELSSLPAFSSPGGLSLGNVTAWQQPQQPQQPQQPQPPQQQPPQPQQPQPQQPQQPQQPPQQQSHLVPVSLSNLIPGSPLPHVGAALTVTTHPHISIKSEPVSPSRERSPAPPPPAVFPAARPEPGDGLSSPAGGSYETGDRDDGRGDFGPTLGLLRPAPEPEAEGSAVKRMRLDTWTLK
UniProt Q6ZNC8: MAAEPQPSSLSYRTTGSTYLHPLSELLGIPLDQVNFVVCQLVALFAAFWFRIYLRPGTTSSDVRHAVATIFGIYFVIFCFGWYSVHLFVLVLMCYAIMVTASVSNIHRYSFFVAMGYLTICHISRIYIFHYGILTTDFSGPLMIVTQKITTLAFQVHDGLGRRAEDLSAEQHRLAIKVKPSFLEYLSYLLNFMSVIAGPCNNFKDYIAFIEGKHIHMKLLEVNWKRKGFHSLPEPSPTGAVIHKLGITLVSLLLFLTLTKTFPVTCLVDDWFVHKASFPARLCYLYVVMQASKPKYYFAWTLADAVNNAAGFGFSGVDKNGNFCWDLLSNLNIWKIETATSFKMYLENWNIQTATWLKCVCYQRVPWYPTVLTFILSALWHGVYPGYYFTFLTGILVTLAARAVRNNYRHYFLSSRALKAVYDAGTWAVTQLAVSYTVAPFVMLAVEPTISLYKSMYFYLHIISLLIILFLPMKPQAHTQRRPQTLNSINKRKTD
UniProt Q14703: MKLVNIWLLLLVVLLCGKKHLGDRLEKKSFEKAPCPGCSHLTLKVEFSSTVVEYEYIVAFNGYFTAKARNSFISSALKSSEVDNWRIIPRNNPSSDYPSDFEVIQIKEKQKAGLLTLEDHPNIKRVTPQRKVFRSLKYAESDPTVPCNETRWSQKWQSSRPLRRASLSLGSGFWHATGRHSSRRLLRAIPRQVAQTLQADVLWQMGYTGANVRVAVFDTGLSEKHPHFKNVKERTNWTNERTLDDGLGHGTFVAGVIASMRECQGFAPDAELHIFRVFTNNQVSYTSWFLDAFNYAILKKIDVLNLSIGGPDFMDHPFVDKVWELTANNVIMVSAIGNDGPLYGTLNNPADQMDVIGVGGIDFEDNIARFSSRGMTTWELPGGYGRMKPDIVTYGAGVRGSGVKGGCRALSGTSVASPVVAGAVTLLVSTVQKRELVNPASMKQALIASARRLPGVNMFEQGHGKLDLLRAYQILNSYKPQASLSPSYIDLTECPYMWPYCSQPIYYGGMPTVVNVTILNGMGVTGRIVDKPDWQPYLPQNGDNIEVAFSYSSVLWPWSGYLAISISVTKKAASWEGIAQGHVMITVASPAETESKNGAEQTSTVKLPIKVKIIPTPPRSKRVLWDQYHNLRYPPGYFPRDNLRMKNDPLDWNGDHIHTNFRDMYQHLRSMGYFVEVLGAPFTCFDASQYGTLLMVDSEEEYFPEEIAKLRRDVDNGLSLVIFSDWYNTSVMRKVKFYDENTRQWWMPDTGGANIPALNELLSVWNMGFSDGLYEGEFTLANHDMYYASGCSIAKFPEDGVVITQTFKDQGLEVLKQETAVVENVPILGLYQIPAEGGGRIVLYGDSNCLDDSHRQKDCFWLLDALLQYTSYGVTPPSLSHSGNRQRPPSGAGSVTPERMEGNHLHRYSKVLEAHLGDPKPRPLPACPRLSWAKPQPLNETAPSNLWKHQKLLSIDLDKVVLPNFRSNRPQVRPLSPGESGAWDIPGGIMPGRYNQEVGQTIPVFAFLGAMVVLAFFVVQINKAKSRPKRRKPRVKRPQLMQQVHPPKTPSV
UniProt Q9BTE3: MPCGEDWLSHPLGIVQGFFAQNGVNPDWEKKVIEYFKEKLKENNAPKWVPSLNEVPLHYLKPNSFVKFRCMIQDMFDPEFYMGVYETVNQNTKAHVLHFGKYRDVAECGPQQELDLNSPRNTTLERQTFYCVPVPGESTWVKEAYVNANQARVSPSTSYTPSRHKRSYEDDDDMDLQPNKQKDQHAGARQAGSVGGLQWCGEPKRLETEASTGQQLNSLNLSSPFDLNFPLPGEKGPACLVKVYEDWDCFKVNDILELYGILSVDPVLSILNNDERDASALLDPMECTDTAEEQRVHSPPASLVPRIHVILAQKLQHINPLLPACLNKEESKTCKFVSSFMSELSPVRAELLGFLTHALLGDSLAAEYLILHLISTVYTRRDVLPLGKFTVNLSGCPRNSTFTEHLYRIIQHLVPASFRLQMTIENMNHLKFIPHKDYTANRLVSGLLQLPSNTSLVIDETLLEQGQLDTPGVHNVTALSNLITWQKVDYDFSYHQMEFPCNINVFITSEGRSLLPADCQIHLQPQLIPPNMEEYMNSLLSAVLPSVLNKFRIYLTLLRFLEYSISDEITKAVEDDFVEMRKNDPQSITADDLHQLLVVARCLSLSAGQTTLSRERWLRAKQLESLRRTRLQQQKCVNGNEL
UniProt P50579: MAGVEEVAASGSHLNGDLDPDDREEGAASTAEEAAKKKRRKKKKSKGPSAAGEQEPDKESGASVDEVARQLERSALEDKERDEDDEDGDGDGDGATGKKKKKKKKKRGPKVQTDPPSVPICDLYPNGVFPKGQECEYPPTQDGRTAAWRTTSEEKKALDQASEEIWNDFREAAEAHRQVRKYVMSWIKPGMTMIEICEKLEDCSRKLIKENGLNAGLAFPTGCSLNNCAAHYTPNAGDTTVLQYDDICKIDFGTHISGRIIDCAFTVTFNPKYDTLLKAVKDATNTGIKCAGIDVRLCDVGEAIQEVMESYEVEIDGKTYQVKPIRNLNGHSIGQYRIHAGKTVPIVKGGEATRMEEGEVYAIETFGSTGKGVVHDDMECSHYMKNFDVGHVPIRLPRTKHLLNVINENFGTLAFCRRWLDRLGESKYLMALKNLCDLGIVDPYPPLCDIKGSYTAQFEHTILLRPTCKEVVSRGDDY
UniProt Q9H8H3: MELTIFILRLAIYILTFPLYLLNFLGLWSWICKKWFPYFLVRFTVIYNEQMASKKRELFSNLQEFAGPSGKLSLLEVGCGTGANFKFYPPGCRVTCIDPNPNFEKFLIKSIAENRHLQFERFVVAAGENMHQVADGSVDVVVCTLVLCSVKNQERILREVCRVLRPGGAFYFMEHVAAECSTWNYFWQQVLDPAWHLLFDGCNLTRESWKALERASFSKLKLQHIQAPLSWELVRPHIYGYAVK
UniProt Q9BUT9: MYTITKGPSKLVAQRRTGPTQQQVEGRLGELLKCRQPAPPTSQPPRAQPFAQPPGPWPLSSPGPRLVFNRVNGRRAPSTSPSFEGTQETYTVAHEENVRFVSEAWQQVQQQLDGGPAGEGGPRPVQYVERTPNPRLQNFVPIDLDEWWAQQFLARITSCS
UniProt Q9Y2X0: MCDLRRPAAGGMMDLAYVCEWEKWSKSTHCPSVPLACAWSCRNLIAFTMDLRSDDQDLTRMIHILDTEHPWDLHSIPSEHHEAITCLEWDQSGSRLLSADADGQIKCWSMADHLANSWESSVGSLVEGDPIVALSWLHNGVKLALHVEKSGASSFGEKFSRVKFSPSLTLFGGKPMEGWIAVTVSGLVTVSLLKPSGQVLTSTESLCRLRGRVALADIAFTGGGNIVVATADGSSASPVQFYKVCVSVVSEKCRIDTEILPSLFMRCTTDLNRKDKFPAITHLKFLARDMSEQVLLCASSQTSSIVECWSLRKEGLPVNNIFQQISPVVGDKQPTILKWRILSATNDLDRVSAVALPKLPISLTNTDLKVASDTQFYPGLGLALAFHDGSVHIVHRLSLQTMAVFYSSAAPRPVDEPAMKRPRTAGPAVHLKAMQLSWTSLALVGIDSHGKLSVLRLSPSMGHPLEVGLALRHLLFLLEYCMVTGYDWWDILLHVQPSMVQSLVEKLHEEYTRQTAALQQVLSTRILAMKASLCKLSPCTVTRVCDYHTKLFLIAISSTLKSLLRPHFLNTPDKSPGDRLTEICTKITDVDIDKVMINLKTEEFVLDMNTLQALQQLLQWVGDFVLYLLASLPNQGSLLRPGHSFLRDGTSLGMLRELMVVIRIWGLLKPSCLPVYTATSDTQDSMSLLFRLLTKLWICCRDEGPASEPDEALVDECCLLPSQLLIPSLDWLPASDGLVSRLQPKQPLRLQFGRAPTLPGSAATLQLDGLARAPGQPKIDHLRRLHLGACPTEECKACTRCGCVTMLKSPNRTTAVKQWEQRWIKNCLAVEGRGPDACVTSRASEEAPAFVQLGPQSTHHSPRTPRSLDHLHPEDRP
UniProt O43513: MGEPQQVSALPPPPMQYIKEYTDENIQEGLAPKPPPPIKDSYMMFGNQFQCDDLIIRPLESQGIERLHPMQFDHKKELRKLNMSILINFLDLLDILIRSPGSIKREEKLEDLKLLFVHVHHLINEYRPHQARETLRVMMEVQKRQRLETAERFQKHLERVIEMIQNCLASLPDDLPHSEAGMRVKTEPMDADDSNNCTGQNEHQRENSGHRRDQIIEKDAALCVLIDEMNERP
UniProt Q16798: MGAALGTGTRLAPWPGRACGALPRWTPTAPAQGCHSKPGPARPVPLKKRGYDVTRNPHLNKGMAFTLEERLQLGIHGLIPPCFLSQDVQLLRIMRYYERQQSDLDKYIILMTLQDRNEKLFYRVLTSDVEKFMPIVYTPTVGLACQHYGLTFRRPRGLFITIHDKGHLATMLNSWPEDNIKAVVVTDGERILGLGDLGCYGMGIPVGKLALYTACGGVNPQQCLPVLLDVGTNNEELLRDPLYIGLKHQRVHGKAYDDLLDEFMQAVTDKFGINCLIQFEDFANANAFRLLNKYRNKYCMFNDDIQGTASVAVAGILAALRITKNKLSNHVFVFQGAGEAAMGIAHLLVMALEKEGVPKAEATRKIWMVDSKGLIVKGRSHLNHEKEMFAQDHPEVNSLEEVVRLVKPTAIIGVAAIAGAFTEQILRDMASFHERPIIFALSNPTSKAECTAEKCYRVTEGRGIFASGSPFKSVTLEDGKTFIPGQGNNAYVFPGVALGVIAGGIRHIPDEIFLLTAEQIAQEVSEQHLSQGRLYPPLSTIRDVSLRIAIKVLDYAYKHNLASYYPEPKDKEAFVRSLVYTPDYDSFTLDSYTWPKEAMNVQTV
UniProt Q14696: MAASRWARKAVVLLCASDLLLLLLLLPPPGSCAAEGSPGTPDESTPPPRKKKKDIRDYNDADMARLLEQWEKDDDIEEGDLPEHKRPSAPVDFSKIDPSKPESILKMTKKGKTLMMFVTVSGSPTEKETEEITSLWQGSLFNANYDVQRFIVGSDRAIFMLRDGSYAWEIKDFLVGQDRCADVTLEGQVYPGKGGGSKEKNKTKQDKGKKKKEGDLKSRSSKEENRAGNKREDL
UniProt Q9P086: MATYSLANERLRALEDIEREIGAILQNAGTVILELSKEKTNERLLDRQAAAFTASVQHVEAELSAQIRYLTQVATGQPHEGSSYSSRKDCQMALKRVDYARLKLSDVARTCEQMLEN

What was measured:
Experiment in all cases: log2 fold change, soluble protein after heating vs DMSO (PISA); higher = thermal stabilisation; K562 lysate, 10 uM; active = over 0.2 and 3.5 SD of the protein, either way, in both replicates (recomputed)
[1] = compound: C1=CC=C(C=C1)[C@H](COC2=CC3=C(C=C2)NC(=O)N3)NC(=O)C4=CC=CN(C4=O)CC5=CC(=C(C=C5)F)F
Outline: (§1)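 Thermal stability, expressed as log-two fold change relative to solvent controls, is given from duplicates. Crude K562 extract in PBS pH 7.4 with 1 mM MgCl2, at 1 mg/mL protein, was treated with 10 μM compound for 30 min and heated in aliquots for 3 min across 48°C-58°C. After pooling, adjustment to 0.5% NP-40 at 4°C and centrifugation at 21,000xg for 90 min, supernatant protein was measured by TMTpro 16plex LC-MS/MS with channel sums equalised.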

[2] = compound: CC1=C(SC2=C1C(=N[C@H](C3=NN=C(N32)C)CC(=O)N)C4=CC=C(C=C4)Cl)C
Outline: as §1

[3] = compound: CC1=C2C(=CC=C1)N=C(N(C2=O)C3=CC=CC=C3C)CN4C=NC5=C(N=CN=C54)N
Outline: as §1

[4] = compound: Cc1sc2c(c1C)C(c1ccc(Cl)cc1)=N[C@@H](CC(=O)OC(C)(C)C)c1nnc(C)n1-2
Outline: as §1

[5] = compound: c1ccc([C@@H]2C[C@H]2NC2CCNCC2)cc1
Outline: as §1

Measured: log2 fold change

MCEE (UniProt Q96PE7)
inactive: [1] 0.055 | [2] -0.016 | [3] 0.037 | [4] -0.183 | [5] 0.063

MCAT (UniProt Q8IVS2)
inactive: [1] -0.02 | [2] 0.062 | [3] -0.008 | [4] 0.029 | [5] -0.008

MCM4 (UniProt P33991)
inactive: [1] 0.027 | [2] 0.036 | [3] 0.016 | [4] -0.037 | [5] 0.055

MCM10 (UniProt Q7L590)
inactive: [1] 0.005 | [2] 0.128 | [3] 0.011 | [4] -0.163 | [5] 0.03

MCOLN1 (UniProt Q9GZU1)
inactive: [1] 0.085 | [2] 0.01 | [3] 0.006 | [4] -0.142 | [5] -0.003

MEMO1 (UniProt Q9Y316)
inactive: [1] 0.029 | [2] -0.032 | [3] -0.01 | [4] 0.038 | [5] 0.021

METTL16 (UniProt Q86W50)
inactive: [1] 0.031 | [2] -0.005 | [3] -0.002 | [4] 0.013 | [5] 0.008

MEF2D (UniProt Q14814)
inactive: [1] 0.055 | [2] -0.06 | [3] 0.028 | [4] -0.005 | [5] 0

MBOAT1 (UniProt Q6ZNC8)
inactive: [1] 0.066 | [2] -0.045 | [3] -0.075

MBTPS1 (UniProt Q14703)
active: [1] -0.317
inactive: [2] 0.141 | [3] 0.079 | [4] -0.063 | [5] 0.017

MBD3 (UniProt O95983)
inactive: [1] 0.011 | [2] 0.005 | [3] -0.008 | [4] -0.021 | [5] -0.036

MEGF9 (UniProt Q9H1U4)
inactive: [1] -0.204 | [2] -0.081 | [3] 0.018 | [4] 0.013 | [5] 0.161

MCMBP (UniProt Q9BTE3)
inactive: [1] -0.016 | [2] 0.035 | [3] 0.019 | [4] -0.013 | [5] 0.057

METTL5 (UniProt H0YFV5)
inactive: [1] 0.066 | [2] 0.004

Random excerpt: 2 entries already listed, in no set order.
MCOLN1 (UniProt Q9GZU1)
inactive: [1] 0.085 | [2] 0.01 | [3] 0.006 | [4] -0.142 | [5] -0.003

MBOAT1 (UniProt Q6ZNC8)
inactive: [1] 0.066 | [2] -0.045 | [3] -0.075

(cont.)

METAP2 (UniProt P50579)
inactive: [1] 0.026 | [2] -0.025 | [3] 0.024 | [4] 0.044 | [5] -0.107

METTL7A (UniProt Q9H8H3)
inactive: [1] 0.069 | [2] -0.059 | [3] -0.078 | [4] -0.008 | [5] -0.074

MCRIP2 (UniProt Q9BUT9)
inactive: [1] 0.024 | [2] 0.019 | [3] 0.031 | [4] 0.027 | [5] -0.025

MFAP1 (UniProt P55081)
inactive: [1] 0.053 | [2] -0.011 | [3] -0.039 | [4] 0.018 | [5] -0.058

MED16 (UniProt Q9Y2X0)
inactive: [1] 0.019 | [2] 0.022 | [3] 0.029 | [4] 0.001 | [5] 0.087

MED7 (UniProt O43513)
inactive: [1] -0.147 | [2] 0.097 | [3] 0.015 | [4] 0.007 | [5] -0.011

METTL6 (UniProt Q8TCB7)
inactive: [1] 0.221 | [2] -0.075 | [3] -0.048 | [4] 0.013 | [5] -0.043

MCL1 (UniProt Q07820)
inactive: [1] 0.003 | [2] 0.021 | [3] -0.029 | [4] 0.106 | [5] -0.08

ME3 (UniProt Q16798)
inactive: [1] 0.023 | [2] 0.031 | [3] 0.054 | [4] -0.184 | [5] -0.154

MESD (UniProt Q14696)
inactive: [1] 0.018 | [2] -0.012 | [3] -0.038 | [4] -0.058 | [5] -0.018

MED11 (UniProt Q9P086)
inactive: [1] 0.001 | [2] 0.061 | [3] -0.12 | [4] 0.319

MFHAS1 (UniProt Q9Y4C4)
inactive: [1] -0.238 | [2] 0.428 | [3] -0.335 | [4] -0.002
